Laboratory results taken from US20040253247A1.
No constants are given. Whether binding was seen depends on the method and setting. Some results given as binding are weak or reduced against the parent protein; the word gives no strength. For some assays here: Tags and fused reporters may be left off the sequences shown.

The chains behind the UniProt entries cited, without tags or fusion partners. Residues count along the entry.
UniProt P02768, residues 25-609: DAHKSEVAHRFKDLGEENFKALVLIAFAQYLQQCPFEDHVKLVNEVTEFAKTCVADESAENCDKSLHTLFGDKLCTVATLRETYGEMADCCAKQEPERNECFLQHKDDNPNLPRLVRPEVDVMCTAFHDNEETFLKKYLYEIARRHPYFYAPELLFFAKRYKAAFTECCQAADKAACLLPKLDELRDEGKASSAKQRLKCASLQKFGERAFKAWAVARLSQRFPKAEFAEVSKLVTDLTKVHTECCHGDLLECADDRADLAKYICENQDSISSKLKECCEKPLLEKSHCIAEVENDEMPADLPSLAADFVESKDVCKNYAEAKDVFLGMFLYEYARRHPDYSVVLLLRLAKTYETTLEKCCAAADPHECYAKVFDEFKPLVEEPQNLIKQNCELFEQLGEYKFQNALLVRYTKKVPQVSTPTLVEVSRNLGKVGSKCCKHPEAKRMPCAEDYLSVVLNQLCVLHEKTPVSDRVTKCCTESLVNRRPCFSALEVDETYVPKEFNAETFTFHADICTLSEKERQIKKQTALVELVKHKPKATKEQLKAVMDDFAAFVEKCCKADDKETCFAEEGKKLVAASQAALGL
UniProt P49065, residues 25-608: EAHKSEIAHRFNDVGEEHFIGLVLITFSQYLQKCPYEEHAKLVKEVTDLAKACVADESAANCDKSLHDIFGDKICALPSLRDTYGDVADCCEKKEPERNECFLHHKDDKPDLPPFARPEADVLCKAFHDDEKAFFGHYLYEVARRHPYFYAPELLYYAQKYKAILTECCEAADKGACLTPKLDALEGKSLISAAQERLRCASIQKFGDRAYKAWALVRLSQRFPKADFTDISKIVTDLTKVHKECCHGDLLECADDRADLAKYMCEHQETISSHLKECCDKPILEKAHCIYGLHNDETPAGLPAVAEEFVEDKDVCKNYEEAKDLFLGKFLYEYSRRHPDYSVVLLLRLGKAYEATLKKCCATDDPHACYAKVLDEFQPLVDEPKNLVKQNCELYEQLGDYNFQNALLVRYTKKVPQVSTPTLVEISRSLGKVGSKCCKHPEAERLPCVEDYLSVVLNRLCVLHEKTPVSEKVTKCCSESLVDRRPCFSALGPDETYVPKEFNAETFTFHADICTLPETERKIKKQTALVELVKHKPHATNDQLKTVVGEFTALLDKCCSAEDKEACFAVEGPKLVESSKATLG
UniProt P02770, residues 25-608: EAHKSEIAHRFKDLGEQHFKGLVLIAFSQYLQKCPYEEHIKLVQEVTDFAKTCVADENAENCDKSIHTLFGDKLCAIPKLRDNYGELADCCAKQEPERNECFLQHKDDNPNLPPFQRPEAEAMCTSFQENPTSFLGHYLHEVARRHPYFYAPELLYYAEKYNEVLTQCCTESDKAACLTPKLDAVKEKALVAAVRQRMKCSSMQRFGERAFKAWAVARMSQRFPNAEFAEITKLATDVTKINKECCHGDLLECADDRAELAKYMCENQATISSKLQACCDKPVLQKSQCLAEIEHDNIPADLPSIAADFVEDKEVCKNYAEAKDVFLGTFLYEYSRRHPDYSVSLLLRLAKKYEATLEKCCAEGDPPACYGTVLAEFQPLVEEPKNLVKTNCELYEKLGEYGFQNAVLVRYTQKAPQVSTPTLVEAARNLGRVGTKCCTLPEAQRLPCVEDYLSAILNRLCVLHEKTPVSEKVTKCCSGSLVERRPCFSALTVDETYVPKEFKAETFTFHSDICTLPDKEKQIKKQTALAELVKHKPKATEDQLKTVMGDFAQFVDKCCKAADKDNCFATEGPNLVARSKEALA
UniProt P02769, residues 25-607: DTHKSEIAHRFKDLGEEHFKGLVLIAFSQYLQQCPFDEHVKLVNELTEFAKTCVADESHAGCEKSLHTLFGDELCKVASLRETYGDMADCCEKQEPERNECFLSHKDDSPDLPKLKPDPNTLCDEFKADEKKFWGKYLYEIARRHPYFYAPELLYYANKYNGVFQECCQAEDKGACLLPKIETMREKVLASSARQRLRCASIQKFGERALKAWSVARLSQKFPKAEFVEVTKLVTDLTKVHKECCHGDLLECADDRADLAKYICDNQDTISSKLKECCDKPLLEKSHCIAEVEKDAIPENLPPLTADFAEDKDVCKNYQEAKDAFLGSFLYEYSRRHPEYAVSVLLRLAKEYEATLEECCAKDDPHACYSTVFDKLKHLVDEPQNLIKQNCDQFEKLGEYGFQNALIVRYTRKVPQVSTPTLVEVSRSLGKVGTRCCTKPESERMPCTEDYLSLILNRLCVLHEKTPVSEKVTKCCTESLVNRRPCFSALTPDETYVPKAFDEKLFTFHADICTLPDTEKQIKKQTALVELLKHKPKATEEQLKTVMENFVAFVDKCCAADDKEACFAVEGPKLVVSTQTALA
UniProt P07724, residues 25-608: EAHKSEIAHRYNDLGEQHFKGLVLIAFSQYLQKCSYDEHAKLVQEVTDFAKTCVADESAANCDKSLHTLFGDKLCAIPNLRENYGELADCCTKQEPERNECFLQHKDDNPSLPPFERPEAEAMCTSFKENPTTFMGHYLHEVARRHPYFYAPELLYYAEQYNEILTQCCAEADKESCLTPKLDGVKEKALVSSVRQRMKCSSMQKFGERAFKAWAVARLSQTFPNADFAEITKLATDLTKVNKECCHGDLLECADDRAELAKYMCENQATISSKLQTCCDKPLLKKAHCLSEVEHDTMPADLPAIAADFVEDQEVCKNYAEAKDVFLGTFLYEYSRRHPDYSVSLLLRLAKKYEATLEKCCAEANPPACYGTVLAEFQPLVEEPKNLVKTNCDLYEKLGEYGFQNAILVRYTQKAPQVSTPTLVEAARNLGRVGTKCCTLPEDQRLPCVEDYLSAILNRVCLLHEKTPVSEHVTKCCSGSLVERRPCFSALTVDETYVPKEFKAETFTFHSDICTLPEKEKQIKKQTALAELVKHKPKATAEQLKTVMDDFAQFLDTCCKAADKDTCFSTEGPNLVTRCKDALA
UniProt Q28522, residues 17-600: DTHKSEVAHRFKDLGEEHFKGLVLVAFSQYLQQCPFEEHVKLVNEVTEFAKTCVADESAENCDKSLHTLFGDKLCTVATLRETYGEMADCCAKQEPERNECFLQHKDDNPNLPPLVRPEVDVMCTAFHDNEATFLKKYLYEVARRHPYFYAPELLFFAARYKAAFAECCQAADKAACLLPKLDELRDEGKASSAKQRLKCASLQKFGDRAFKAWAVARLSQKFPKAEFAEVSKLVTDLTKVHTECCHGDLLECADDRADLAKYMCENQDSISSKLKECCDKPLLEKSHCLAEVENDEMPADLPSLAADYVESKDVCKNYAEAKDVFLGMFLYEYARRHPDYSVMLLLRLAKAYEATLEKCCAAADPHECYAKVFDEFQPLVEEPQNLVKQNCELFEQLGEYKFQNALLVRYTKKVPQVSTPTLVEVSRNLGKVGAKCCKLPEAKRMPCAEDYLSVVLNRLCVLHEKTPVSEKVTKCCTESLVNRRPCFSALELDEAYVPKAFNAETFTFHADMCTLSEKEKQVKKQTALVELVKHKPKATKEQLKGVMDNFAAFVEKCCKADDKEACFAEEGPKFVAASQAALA

Assays:
[1] = molecular target: human albumin (human) (UniProt P02768); assay: phage ELISA
[2] = molecular target: rabbit albumin (rabbit) (UniProt P49065); assay: phage ELISA
[3] = molecular target: rat albumin (rat) (UniProt P02770); assay: phage ELISA
[4] = molecular target: bovine albumin (bovine) (UniProt P02769); assay: phage ELISA, photograph of the plate
[5] = molecular target: human albumin (human) (UniProt P02768); assay: phage ELISA, photograph of the plate
[6] = molecular target: mouse albumin (mouse) (UniProt P07724); assay: phage ELISA, photograph of the plate
[7] = molecular target: rabbit albumin (rabbit) (UniProt P49065); assay: phage ELISA, photograph of the plate
[8] = molecular target: rat albumin (rat) (UniProt P02770); assay: phage ELISA, photograph of the plate
[9] = molecular target: rhesus albumin (rhesus) (UniProt Q28522); assay: phage ELISA, photograph of the plate
[10] = molecular target: IgG-Fc [IgG part: P01857]; assay: phage display selection on immobilized IgG-Fc
[11] = molecular target: IgG-Fc [IgG part: P01857]; assay: general note of Table I; synthetic peptide, its number stands in its own row
[12] = molecular target: IgG-Fc [IgG part: P01857]; assay: general note of Table I; phage clone, M13/gIII display, ALA scan, EC50 in its own row

| Binder | binding [1] | binding [2] | binding [3] | binding [12] | other results |
| --- | --- | --- | --- | --- | --- |
| HSQMEDICLPRWGCLWGDEL [RB-B8] | binds | binds | binds |  | binding [4]: binds; binding [5]: binds; binding [6]: binds; binding [7]: binds; binding [8]: binds; binding [9]: binds |
| QWQVMDICLPRWGCLWADEY [RB-B11] | binds | binds | binds |  |  |
| QGLIGDICLPRWGCLWGDSV [RB-B12] | binds | binds | binds |  |  |
| HRLVEDICLPRWGCLWGNDF [RB-B16] | binds | binds | binds |  |  |
| QMHMMDICLPKWGCLWGDTS [RB-B9] | binds | binds | binds |  |  |
| LRIFEDICLPKWGCLWGEGF [RB-B14] | binds | binds | binds |  |  |
| QSYMEDICLPRWGCLSDDAS [RB-B3] | binds | binds | binds |  |  |
| QGLIGDICLPRWGCLWGDSV [RB-R8] | binds | binds | binds |  | binding [4]: binds; binding [5]: binds; binding [6]: binds; binding [7]: binds; binding [8]: binds; binding [9]: binds |
| LIFMEDVCLPQWGCLWEDGV [RB-R16] | binds | binds | binds |  |  |
| QRDMGDICLPRWGCLWEDGV [HC-R10] | binds | binds | binds |  |  |
| QGYMVDFCLPRWGCLWGDAN [RB-R12] |  | binds | binds |  |  |
| KMGRVDFCLPKWGCLWGDEL [RB-R13] |  | binds | binds |  |  |
| QSQLEDFCLPKWGCLWGDGF [RB-R15] |  | binds | binds |  |  |
| QGGMGDFCLPQWGCLWGEDL [RB-R17] |  | binds | binds |  |  |
| DICLPRWGCLW [RC-R13] |  |  | binds |  | binding [6]: binds; binding [8]: binds |
| EWDVCLPHWGCLWDG [RBC-R16] |  | binds | binds |  |  |
| EEDLCLPVWGCLWGA [RBC-R14] |  |  | binds |  | binding [6]: binds; binding [8]: binds |
| DTCADLVRLGLECWA [RD-R2] |  |  | binds |  | binding [6]: binds; binding [8]: binds; binding [9]: binds |
| GEDWCDSTLLAFDLCGEGAR [BA-B44] |  | binds |  |  | binding [7]: binds |
| GENWCDWVLLAYDLCGEDNT [BA-B37] |  | binds |  |  | binding [7]: binds |
| MELWCDSTLMAYDLCGDFNM [BA-B39] |  | binds |  |  | binding [7]: binds |
| EVRSFCTDWPAHYSCTSLQG [HA-H74] | binds |  |  |  | binding [5]: binds |
| RAAESSVCYWPGICFDRTEQ [HB-H2] | binds |  |  |  | binding [4]: binds; binding [5]: binds; binding [9]: binds |
| QRHPEDICLPRWGCLWGDDD [RB-H1] | binds | binds | binds |  | binding [4]: binds; binding [5]: binds; binding [6]: binds; binding [7]: binds; binding [8]: binds; binding [9]: binds |
| NRQMEDICLPQWGCLWGDDF [RB-H6] | binds | binds | binds |  |  |

| Binder | binding [1] | binding [2] | binding [3] | binding [12] | other results |
| --- | --- | --- | --- | --- | --- |
| LRLMDNICLPRWGCLWDDGF [RB-B7] | binds | binds | binds |  |  |
| QWHMEDICLPQWGCLWGDVL [RB-B5] | binds | binds | binds |  |  |
| QWQMENVCLPKWGCLWEELD [RB-B6] | binds | binds | binds |  |  |
| LWAMEDICLPKWGCLWEDDF [RB-B4] | binds | binds | binds |  |  |
| ETQRCTWHMGELVWCEREHN (N-terminal amine and C-terminal amide) [Fc-I peptide …] |  |  |  |  | binding [10]: binds; binding [11]: binds |
| DLADCSWHMGELVWCSRVEG (N-terminal amine and C-terminal amide) |  |  |  |  | binding [11]: binds |
| WEADCAWHLGELVWCTPMEF (N-terminal amine and C-terminal amide) |  |  |  |  | binding [11]: binds |
| AEADCAWHLGELVWCTKVEE |  |  |  | binds |  |
| WAADCAWHLGELVWCTKVEE |  |  |  | binds |  |
| WEPDCAWHLGELVWCTKVEE |  |  |  | binds |  |
| WEAACAWHLGELVWCTKVEE |  |  |  | binds |  |
| WEAACSWHLGELVWCTKVEE |  |  |  | binds |  |
| WEADCAAHLGELVWCTKVEE |  |  |  | binds |  |
| WEADCAWALGELVWCTKVEE |  |  |  | binds |  |
| WEADCAWHAGELVWCTKVEE |  |  |  | binds |  |
| WEADCAWHLAELVWCTKVEE |  |  |  | binds |  |
| WEADCAWHLGALVWCTKVEE |  |  |  | binds |  |
| WEADCAWHLGEAVWCTKVEE |  |  |  | binds |  |
| WEADCAWHLGELAWCTKVEE |  |  |  | binds |  |
| WEADCAWHLGELVACTKVEE |  |  |  | binds |  |
| WEADCAWHLGELVWCAKVEE |  |  |  | binds |  |
| WEADCAWHLGELVWCTAVEE |  |  |  | binds |  |
| WEADCAWHLGELVWCTKAEE |  |  |  | binds |  |
| WEADCAWHLGELVWCTKVAE |  |  |  | binds |  |
